Results reported in the supplement of paper PMC3334620.
In all, about 33,000 sequences were measured (“E-score (-0.5 to 0.5)”: median about -8e-05, highest 2% from about 0.23 on). Some of the results follow.

target: T1, Nrg2 (UniProt P38082); assay: PBM E-score (8-mer binding enrichment) (E-score (-0.5 to 0.5)); higher = stronger / more preferred TF binding; settings: protein concentration: 100 nM; construct: GST-full length
T1 sequence: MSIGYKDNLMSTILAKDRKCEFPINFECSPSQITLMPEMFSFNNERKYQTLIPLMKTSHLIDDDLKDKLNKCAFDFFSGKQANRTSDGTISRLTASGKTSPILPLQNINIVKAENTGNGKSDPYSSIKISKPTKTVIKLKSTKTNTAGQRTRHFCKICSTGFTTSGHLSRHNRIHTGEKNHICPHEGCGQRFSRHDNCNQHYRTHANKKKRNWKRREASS
Procedure, shortened: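 The E-score, a modified Wilcoxon-Mann-Whitney statistic, was computed by the Universal PBM Analysis Suite for every ungapped eight-base word pooled with its reverse complement. Scans behind it were normalised with masliner after bound GST-tagged yeast transcription factors were detected with fluorescent anti-GST. The proteins, at about 100-200 nM, had been applied to universal all-10-mer Agilent arrays made double-stranded by primer extension.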

Going from AGCAATTC to AGGGCGCG, the “PBM E-score” value rises from 0.0177 to 0.0238.

Compared with CTTCTTAA, AAATGCTC is lower in “PBM E-score” value: 0.052 for the first, 0.00815 for the second.

Compared with CTTCAACA, GATGAAAA is lower in “PBM E-score” value: 0.0511 for the first, 0.0467 for the second.

Compared with CGCCCGAA, AAACTCAG is higher in “PBM E-score” value: -0.0417 for the first, 0.0476 for the second.

First: CCACCATC
Second: ATTCCATA
The “PBM E-score” value of the first is lower: -0.163 for the first, 0.106 for the second.

Compared with AAAGTCGA, GAGCACGC is lower in “PBM E-score” value: -0.0895 for the first, -0.175 for the second.

Going from ACCGTCTA to AATCATAC, the “PBM E-score” value rises from -0.157 to 0.116.

Compared with AACACGCT, CTGTGTCC is lower in “PBM E-score” value: -0.0211 for the first, -0.107 for the second.

First: CTTTTCTC
Second: ACTCTAGC
The “PBM E-score” value of the first is higher: 0.00218 for the first, -0.23 for the second.

Going from AAGATCAG to ACTCGGTA, the “PBM E-score” value falls from -0.0343 to -0.06.

First: TAGCCCTA
Second: CCTATTCG
The “PBM E-score” value of the first is lower: -0.117 for the first, -0.116 for the second.

First: CGCGCAGC
Second: CTCTGATA
The “PBM E-score” value of the first is higher: 0.0142 for the first, 0.00461 for the second.

Going from TAGGGCGA to CAAGTCTA, the “PBM E-score” value rises from -0.102 to -0.0983.

First: CCTGGTCC
Second: TAATGAGA
The “PBM E-score” value of the first is higher: 0.16 for the first, 0.0314 for the second.

Going from CCCTCCGA to AGTGATTA, the “PBM E-score” value rises from -0.124 to 0.135.

Compared with AATCTGAC, CATACTTA is lower in “PBM E-score” value: 0.0791 for the first, 0.0179 for the second.

Going from GGCTCTCA to ATAGAAAT, the “PBM E-score” value rises from -0.263 to 0.22.

First: CGACTATC
Second: ATCCCCAA
The “PBM E-score” value of the first is lower: 0.0892 for the first, 0.114 for the second.

First: AGGGTGGA
Second: ACTTACGA
The “PBM E-score” value of the first is lower: 0.0748 for the first, 0.192 for the second.

First: CAGTGTAG
Second: ATAACCTC
The “PBM E-score” value of the first is higher: -0.0273 for the first, -0.0408 for the second.

First: ATAGTATG
Second: CACCCGCC
The “PBM E-score” value of the first is lower: 0.0928 for the first, 0.2 for the second.

Compared with ACCTCAAA, TAGGAGGA is lower in “PBM E-score” value: -0.00797 for the first, -0.083 for the second.

Going from CCCTGGCA to GAAAAACA, the “PBM E-score” value falls from 0.207 to -0.0315.

First: GGAACTAC
Second: CGGGAAGC
The “PBM E-score” value of the first is higher: 0.0701 for the first, 0.00086 for the second.

Going from CTGGCGCA to GCTTTGCA, the “PBM E-score” value falls from -0.117 to -0.195.

Compared with CCGTCCTC, AACCTTTA is higher in “PBM E-score” value: -0.196 for the first, -0.164 for the second.

Going from AAACCGGA to CTTACGGC, the “PBM E-score” value falls from 0.0713 to -0.191.

First: AACACCCC
Second: CTTTTAGA
The “PBM E-score” value of the first is higher: 0.0806 for the first, -0.167 for the second.

Compared with GTGCCCAC, CCAAGTAA is higher in “PBM E-score” value: -0.0915 for the first, 0.0954 for the second.

Compared with CCCCCGCC, GACACAGC is higher in “PBM E-score” value: -0.279 for the first, -0.105 for the second.

Going from GACGAGTA to AGAGTTAT, the “PBM E-score” value rises from 0.113 to 0.125.

Compared with ACGTCTCT, CCATCATC is higher in “PBM E-score” value: -0.0688 for the first, 0.00441 for the second.

First: AACGCTAG
Second: CGATGTCA
The “PBM E-score” value of the first is lower: -0.141 for the first, 0.0217 for the second.

Compared with TCCAGGCA, AGAACGAG is lower in “PBM E-score” value: 0.0917 for the first, 0.00716 for the second.

Compared with ATATCAAC, GCTCACAA is lower in “PBM E-score” value: 0.127 for the first, 0.0948 for the second.

Going from ATATATAT to CTAGGCTC, the “PBM E-score” value falls from 0.107 to -0.334.

Going from ACCGCGTG to CGTCCAAC, the “PBM E-score” value falls from -0.0595 to -0.208.

Compared with GTCCCGAA, AAGACACA is lower in “PBM E-score” value: -0.069 for the first, -0.122 for the second.

Going from ACCGGGTA to CAGCATGA, the “PBM E-score” value falls from 0.00068 to -0.137.

First: AAATATCT
Second: CACGCGGC
The “PBM E-score” value of the first is higher: 0.0658 for the first, -0.0674 for the second.

First: CTAGAAAA
Second: CTCTGTTC
The “PBM E-score” value of the first is lower: -0.146 for the first, -0.00809 for the second.

Going from CGATGGGC to CAATACTC, the “PBM E-score” value rises from 0.128 to 0.217.

First: ATGAGCTC
Second: ACTGTCGC
The “PBM E-score” value of the first is higher: 0.0893 for the first, -0.00119 for the second.

Going from AAGGACAC to TCTGATAA, the “PBM E-score” value rises from -0.104 to 0.0758.

Going from TATCCAAA to GCTAAAGA, the “PBM E-score” value falls from 0.153 to 0.0825.

First: GGTAAAAA
Second: CGCGCCAG
The “PBM E-score” value of the first is higher: 0.0979 for the first, 0.0135 for the second.

Compared with GGCGGGAC, ACCTCGTC is higher in “PBM E-score” value: -0.148 for the first, 0.162 for the second.

First: GTCCTTTA
Second: ACGTAGAT
The “PBM E-score” value of the first is lower: -0.04 for the first, 0.117 for the second.

Compared with GATTCCAC, AGGACCAC is lower in “PBM E-score” value: 0.0524 for the first, -0.0737 for the second.

First: CACAAAGA
Second: GGCTTCGA
The “PBM E-score” value of the first is higher: -0.0269 for the first, -0.0892 for the second.

Going from GGTGGAAA to GTGCCTCA, the “PBM E-score” value falls from -0.0517 to -0.191.

Going from GGATAATA to CTAACATA, the “PBM E-score” value falls from 0.131 to -0.0449.

First: GTCGCAAC
Second: AAGGTGAC
The “PBM E-score” value of the first is higher: 0.0102 for the first, -0.0742 for the second.

Going from AAAGATTC to GGCACGGA, the “PBM E-score” value rises from -0.0202 to -0.00838.

First: CTCTTGTA
Second: CCTCTCTA
The “PBM E-score” value of the first is higher: 0.00666 for the first, -0.294 for the second.

Compared with GGGTACAC, GCGCGTGA is higher in “PBM E-score” value: -0.0407 for the first, 0.0824 for the second.

Compared with AAAACCAC, GACGCTTA is lower in “PBM E-score” value: -0.0242 for the first, -0.122 for the second.

Compared with ACACTAGG, CTCCATAC is lower in “PBM E-score” value: 0.106 for the first, 0.101 for the second.

First: GAAGCTCC
Second: CATACAGC
The “PBM E-score” value of the first is higher: 0.0217 for the first, -0.0898 for the second.

Going from CCCAAGCA to GCTCCAGC, the “PBM E-score” value rises from 0.0289 to 0.161.

First: GGGAGCAA
Second: AGTCGTAA
The “PBM E-score” value of the first is lower: -0.177 for the first, 0.0577 for the second.

Going from GCCACGGC to GCCGGAAA, the “PBM E-score” value rises from -0.159 to 0.104.

First: CCCGTATC
Second: CTAAGGAG
The “PBM E-score” value of the first is higher: -0.0469 for the first, -0.197 for the second.

Compared with TAGTCACA, GGTTGCAC is higher in “PBM E-score” value: -0.0452 for the first, -0.0321 for the second.

Going from GAGCCTCA to GAATCTAA, the “PBM E-score” value rises from -0.173 to 0.00962.

Going from AGCCACTG to CATCCTAC, the “PBM E-score” value falls from 0.0457 to -0.068.

Compared with AAAGGAAT, GCGATTTA is higher in “PBM E-score” value: -0.0792 for the first, 0.166 for the second.

First: GATAGGGC
Second: AGCTGGCC
The “PBM E-score” value of the first is higher: 0.162 for the first, 0.104 for the second.

Going from CCCCCGAA to CTGGTTGC, the “PBM E-score” value rises from -0.329 to 0.17.

Going from GGTGGTTA to GAATTAAC, the “PBM E-score” value rises from -0.128 to 0.0791.

Compared with CAGTAGAC, AACACAGA is higher in “PBM E-score” value: -0.115 for the first, 0.0588 for the second.

Compared with CACGGCGC, ACGGCTAT is lower in “PBM E-score” value: 0.0276 for the first, -0.15 for the second.

First: GGGCTCGA
Second: AAAATTGG
The “PBM E-score” value of the first is lower: -0.0974 for the first, 0.16 for the second.

First: CCGTTGTC
Second: CGCCAAAC
The “PBM E-score” value of the first is higher: 0.208 for the first, 0.022 for the second.

Going from GGAGGGAA to GAACCTAA, the “PBM E-score” value rises from -0.13 to 0.0631.

Going from CAGACAGG to AGATTGGA, the “PBM E-score” value falls from 0.0365 to -0.0469.

Compared with CCTATACC, GGCGATCA is higher in “PBM E-score” value: -0.149 for the first, -0.103 for the second.

Compared with GAAGATGC, ACGCGGTG is higher in “PBM E-score” value: -0.0271 for the first, 0.109 for the second.

Compared with AATACAAA, AAGGGCTG is lower in “PBM E-score” value: 0.269 for the first, -0.263 for the second.

Compared with CCGATATC, AATTGCCA is higher in “PBM E-score” value: 0.0702 for the first, 0.139 for the second.

Compared with CCATAGCG, ATTGTCCG is higher in “PBM E-score” value: -0.024 for the first, 0.176 for the second.

First: AGCCAGCT
Second: TATCACCA
The “PBM E-score” value of the first is lower: -0.149 for the first, 0.0224 for the second.

First: CGCATCGA
Second: AACACCTC
The “PBM E-score” value of the first is higher: 0.17 for the first, -0.142 for the second.

Compared with CTCGATGA, GGTACAAA is lower in “PBM E-score” value: 0.173 for the first, -0.0265 for the second.

Compared with CATTGCAA, TAAAGCAA is higher in “PBM E-score” value: -0.00795 for the first, 0.155 for the second.

Going from CTCGCCCA to AGGACGAA, the “PBM E-score” value falls from 0.0673 to 0.055.
